In one test the target is BAD. Kind of test: yeast two-hybrid, Bok-GAL4-AD vs GAL4-BD fusion, growth on selective medium with 5 mM 3-aminotriazole.
The next test concerns the target Bcl-xL. Put plainly: yeast two-hybrid; (-) = absence of reporter gene expression.

Results are given in words; binding and its absence hold for the method and conditions named.

B1: Bok-L (Bcl-2-related ovarian killer, long form, rat) (other)
chain: MEVLRRSSVFAAEIMDAFDRSPTDKELVAQAKALGREYVHARLLRAGLSWSAPERASPAPGGRLAEVCTVLLRLGDELEQIRPSVYRNVARQLHIPLQSEPVVTDAFLAVAGHIFSAGITWGKVVSLYSVAAGLAVDCVRQAQPAMVHALVDCLGEFVRKTLATWLRRRGGWTDVLKCVVSTDPGFRSHWLVATLCSFGRFLKAAFFLLLPER
notes: also called full-length Bok protein
As to B1, the binding entry with BAD and with Bcl-xL was “no binding” each time.

For the origin of these results see patent US20040253629A1 (Stanford University, published 2004).
